A short description of the test: qHTS Assay for Lipid Storage Modulators in Drosophila S3 Cells.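 For cell number change: cells counted by Cell Tracker Red CMTPX staining in the red channel.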 As to conditions: BODIPY lipid droplet fluorescence, 18-24 h; for cell number change: measured here: cell count max response, cells fed with added oleic acid. A digest of the protocol:
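Drosophila S3 cells loaded with oleic acid (400 uM, as added) and compounds at several concentrations; lipid droplets imaged by 488-nm laser-scanning cytometry, 500–530 nm intensity and object ratio to cell channel. Percent activity normalized to 20 uM Triacsin C.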
(qHTS replaces the single test concentration by a dilution series.)

Where [1] appears, read: measured here: lipid fluorescence (Fed channel) AC50, cells fed with added oleic acid.
The mark [2] stands for this setting: measured here: cell number channel AC50, cells fed with added oleic acid.

Some of the results follow. These are further read-outs of the screen, such as a control signal, another cell line or another target. No call is given for them. Most of these compounds were active or inconclusive in the main read-out, so they are no random draw. The note in brackets gives the kind of curve behind each potency; many fits are weak.

On to `CCOc1ccc(CCNC(=O)c2sc3nc4n(c(=O)c3c2C)CCC4)cc1OCC`, for which the cell number change was -20.8%. For the same compound, the concentration at half-maximal activity (AC50) under setting [1] is 16.4 µM [falling, single point]. Regarding `CC(C)(C)NC(=O)CN(C(=O)CSc1nnc(COc2ccccc2)o1)c1cccc(F)c1`, the cell number change is -6.03%. In the case of `COc1ccc2c(CC(=O)OCC(=O)Nc3ccc(C)cc3)coc2c1`, the cell number change is 0.367%. In addition, the AC50 under setting [1] is 29.1 µM [rising, single point]. For `CCc1c(C)c2c(C)nn(-c3ccccc3)c2[nH]c1=O`, the AC50 under setting [2] is 6.51 µM [falling, single point]. For `N#CC12CCCCC1CC1CCCCC1(C#N)N2CCO` (stereo not given), the cell number change is -1.1%. In addition, the AC50 under setting [1] is 0.00461 µM [rising, full curve, poor fit]. As for `O=[N+]([O-])c1ccc(NCc2ccccn2)nc1`, the cell number change is 30.2%. Further, the half-maximal activity concentration (AC50) under setting [2] is 25.9 µM [rising, single point]. The half-maximal activity concentration (AC50) under setting [1] was 18.4 µM [rising, single point]. Take `COc1ccc(CNC(=O)c2ccc(S(=O)(=O)N3CCOCC3)cc2)cc1`: the cell number change is -23.4%. Further, the AC50 under setting [1] is 0.259 µM [falling, partial curve, poor fit]. With `Cc1ccccc1OCc1nnc(SC(C)C(=O)O)n1Cc1ccccc1` (stereo not given), the cell number change is 10.9%. Take `CCC(CC)c1nnc(NC(=O)c2c(C)nn(Cc3ccccc3Cl)c2C)s1`: the cell number change is -31.1%. For the same compound, the AC50 under setting [2] was 4.11 µM [falling, full curve, poor fit]. Also, the AC50 under setting [1] was 29.1 µM [falling, single point]. `COC(=O)[C@@H]1OC(=O)[C@H]2O[C@@]23[C@@]1(C)CC[C@@H]1[C@@]2(C)C=CC(=O)OC(C)(C)[C@@H]2CC(=O)[C@]13C`: the cell number change is 3.61%. Under setting [1], the concentration at half-maximal activity (AC50) is 4.11 µM [rising, full curve, poor fit].

As to `Cc1cccc(OCCCn2c(=O)oc3ccccc32)c1`, the cell number change turned out to be 111%. For the same compound, under setting [2], the concentration at half-maximal activity (AC50) was 23.1 µM [rising, single point]. Moreover, under setting [1], the AC50 is 23.1 µM [rising, partial curve]. For `CCOC(=O)c1c(C)[nH]c(C(=O)OCC(=O)c2ccc(OC)cc2OC)c1C`, the cell number change was -6.04%. As for `CCOC(=O)N1CCC(NC(=O)c2cc3c(-c4cccc(OC)c4)nn(C)c3s2)CC1`, the cell number change was -57.1%. The AC50 under setting [2] is 29.1 µM [falling, single point].

Take `CCn1cc(CN2CCN(Cc3ccsc3)C(CCO)C2)cn1` (stereo not given): the cell number change was determined as 13.3%. On to `CC(C)(C)c1ccc(C(=O)NCCOc2ccccc2)cc1`, for which the cell number change was -24.9%. For the same compound, under setting [2], the half-maximal activity concentration (AC50) is 4.11 µM [falling, full curve, poor fit].

Take `COc1ccccc1NS(=O)(=O)c1c(C)nc2sccn2c1=O`: the cell number change was 7.49%. For the same compound, the AC50 under setting [1] is 29.1 µM [rising, single point]. For `CCOC(=O)C1CCCN(C(=O)Cc2c(C(=O)O)[nH]c3ccccc23)C1` (stereo not given), the cell number change was found to be 9.64%. The AC50 under setting [1] is 0.092 µM [falling, full curve, poor fit]. For `O=C(Cn1c2ccc(F)cc2c2nc3n(c(=O)c21)CCS3)Nc1ccccc1F`, the cell number change was -43.6%. In addition, the AC50 under setting [2] was 29.1 µM [falling, single point]. Besides, under setting [1], the AC50 was 5.8 µM [falling, full curve].

For `CC(=O)Cn1nnc2sc3c(c2c1=O)CCC(C(C)(C)C)C3` (stereo not given), the cell number change turned out to be 16.9%.

Consider `Cc1ccc(NC(=O)CN(C)C(=O)COC(=O)c2nc3nccc(C)n3n2)cc1`, for which the cell number change worked out at 7.02%. In addition, the AC50 under setting [1] is 29.1 µM [rising, single point]. Take `CCOC(=O)CSc1nc2c(c(=O)n(C)c(=O)n2C)n1Cc1ccccc1F`: the cell number change is -3.64%. Consider `CCC(CC)C(=O)NCc1ccccc1OC`, for which the cell number change came to 2.86%. Also, the AC50 under setting [1] was 0.58 µM [rising, single point]. In the case of `Cc1ccc(C)c(OCCCN2CCCC2)c1`, the cell number change is -46.1%. In addition, under setting [2], the AC50 was 0.411 µM [falling, full curve]. In addition, under setting [1], the AC50 was 0.651 µM [falling, full curve]. In the case of `CCC(CC)C1=NN2C(=N)/C(=C\c3cc(C)n(-c4cccc(C)c4)c3C)C(=O)N=C2S1`, the cell number change is -5.56%. Also, the AC50 under setting [2] was 6.51 µM [rising, single point]. In addition, the concentration at half-maximal activity (AC50) under setting [1] was 6.51 µM [rising, single point].

For the compound `c1cc2c3c(cccc3c1)C(N1CCCCCC1)=N2`, the cell number change stood at 0.481%. In addition, the AC50 under setting [1] was 6.51 µM [falling, single point]. For `CCN(Cc1ccccc1)C(=O)CSc1ccccc1C(=O)O`, the cell number change amounted to 18.4%. Besides, the half-maximal activity concentration (AC50) under setting [2] was 0.259 µM [rising, full curve, poor fit]. `CCc1ccc(OCC(=O)NC(=S)Nc2ccc(C(=O)O)cc2)cc1`: the cell number change was -11.8%. For the same compound, the AC50 under setting [1] is 29.1 µM [falling, single point]. As to `COc1cc(S(=O)(=O)N2CCOCC2)ccc1NC(=O)CSc1n[nH]c(=O)[nH]c1=O`, the cell number change was -13%. Under setting [2], the AC50 is 2.06 µM [falling, partial curve]. The half-maximal activity concentration (AC50) under setting [1] is 2.59 µM [falling, full curve]. `Cc1nc2ccc(C(=O)N/N=C/c3ccccc3O)cc2[nH]1`: the cell number change worked out at 55.6%. The concentration at half-maximal activity (AC50) under setting [2] is 1.64 µM [rising, full curve]. Also, the AC50 under setting [1] is 2.06 µM [rising, partial curve].

`CCOc1ccc(S(=O)(=O)N(C)c2ccc(OCC(=O)N3CCOCC3)cc2)cc1`: the cell number change came out at 83.1%. The AC50 under setting [2] was 29.1 µM [rising, single point]. Consider `O=C(Nc1cc(C(F)(F)F)ccc1N1CCOCC1)c1cccnc1`, for which the concentration at half-maximal activity (AC50) is 0.164 µM [rising, full curve] under setting [2] and 0.184 µM [rising, full curve] under setting [1]. With `C=CCNC(=O)C(C)N1c2cccc3cccc(c23)S1(=O)=O` (stereo not given), the cell number change was -10.8%. As for `CN1C(=O)/C(=C/c2ccc(OCc3cccc(F)c3)cc2)NC1=S`, the cell number change turned out to be 22.5%. Take `COc1ccc(-c2ccc(-c3noc(-c4ccccc4)n3)c(OC)n2)cc1`: the cell number change was 134%. Further, the AC50 under setting [2] was 8.2 µM [rising, partial curve]. Under setting [1], the concentration at half-maximal activity (AC50) was 1.84 µM [rising, partial curve]. For `COc1cc(O)sc1C=Nc1ccc(Cl)cc1`, the cell number change was 24.4%. Also, under setting [1], the concentration at half-maximal activity (AC50) was 5.8 µM [rising, full curve, poor fit]. Regarding `Cc1ccc(/C=N/NC(=O)Cn2cnc3ccccc32)o1`, the cell number change amounted to 17.2%. Also, the half-maximal activity concentration (AC50) under setting [1] is 29.1 µM [rising, single point]. With `CN(C)S(=O)(=O)c1cc(NC(=O)c2cc(=O)[nH]c3ccccc23)ccc1Cl`, the cell number change amounted to 95.8%. For the same compound, the AC50 under setting [2] was 6.51 µM [rising, full curve]. As to `CCN(CC)CCN(C(=O)c1ccc(C(=O)c2ccccc2)cc1)c1nc2cc3c(cc2s1)OCO3`, the AC50 under setting [1] was 35.5 µM [rising, single point].

One may read the AC50 as the midpoint of the concentration-response curve, whichever way the signal moves. High values mean weaker potency, low ones greater potency.
